# Results published in the supplement of paper PMC8728848.
# The other results are listed elsewhere or left out.
# B1: MFG-E8 (Mus musculus), P21956 (protein)
# chain: MQVSRVLAALCGMLLCASGLFAASGDFCDSSLCLNGGTCLTGQDNDIYCLCPEGFTGLVCNETERGPCSPNPCYNDAKCLVTLDTQRGDIFTEYICQCPVGYSGIHCETETNYYNLDGEYMFTTAVPNTAVPTPAPTPDLSNNLASRCSTQLGMEGGAIADSQISASSVYMGFMGLQRWGPELARLYRTGIVNAWTASNYDSKPWIQVNLLRKMRVSGVMTQGASRAGRAEYLKTFKVAYSLDGRKFEFIQDESGGDKEFLGNLDNNSLKVNMFNPTLEAQYIKLYPVSCHRGCTLRFELLGCELHGCSEPLGLKNNTIPDSQMSASSSYKTWNLRAFGWYPHLGRLDNQGKINAWTAQSNSAKEWLQVDLGTQRQVTGIITQGARDFGHIQYVASYKVAHSDDGVQWTVYEEQGSSKVFQGNLDNNSHKKNIFEKPFMARYVRVLPVSWHNRITLRLELLGC
# How the values were obtained:
# Test in all cases: glycan array binding signal (z-score within array); higher = stronger binding
# Conditions in all cases: glycan notation: IUPAC condensed, linker removed
# [1] = molecular target: Man(a1-2)Man(a1-6)[Man(a1-3)]Man(a1-6)[Man(a1-2)Man(a1-2)Man(a1-3)]Man
# In short: (§1)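 Arrays were curated from the Consortium for Functional Glycomics database, 3228 in total, and kept only where the protein sequence was available. Binding is expressed as a within-array Z-score. This score was averaged across arrays of the same protein sequence at different concentrations or buffers and across linkers, and negative values can be read as non-binding.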
# [2] = molecular target: Man(a1-2)Man(a1-6)[Man(a1-3)]Man(a1-6)[Man(a1-2)Man(a1-2)Man(a1-3)]Man(b1-4)GlcNAc(b1-4)GlcNAc
# In short: as §1
# Man(a1-3)[Man(a1-6)]Man = molecular target: Man(a1-3)[Man(a1-6)]Man
# In short: as §1
# [3] = molecular target: Man(a1-3)[Man(a1-6)]Man(a1-6)[Man(a1-2)Man(a1-3)]Man(b1-4)GlcNAc(b1-4)GlcNAc
# In short: as §1
# [4] = molecular target: Man(a1-3)[Man(a1-6)]Man(a1-6)[Man(a1-3)]Man
# In short: as §1
# [5] = molecular target: Man(a1-3)[Man(a1-6)]Man(a1-6)[Man(a1-3)]Man(b1-4)GlcNAc(b1-4)GlcNAc
# In short: as §1
# [6] = molecular target: Man(a1-3)[Man(a1-6)]Man(b1-4)GlcNAc(b1-4)GlcNAc
# In short: as §1
# [7] = molecular target: Man(a1-3)[Man(a1-6)]Man(b1-4)GlcNAc(b1-4)[Fuc(a1-6)]GlcNAc
# In short: as §1
# Man(a1-6)Man = molecular target: Man(a1-6)Man
# In short: as §1
# Man(b1-4)GlcNAc = molecular target: Man(b1-4)GlcNAc
# In short: as §1
# MurNAc(b1-4)GlcNAc = molecular target: MurNAc(b1-4)GlcNAc
# In short: as §1
# Neu5Ac(a2-3)Gal = molecular target: Neu5Ac(a2-3)Gal
# In short: as §1
# [8] = molecular target: Neu5Ac(a2-3)Gal(b1-3)GalNAc
# In short: as §1
# [9] = molecular target: Neu5Ac(a2-3)Gal(b1-3)GalNAc(b1-3)Gal(a1-4)Gal(b1-4)Glc
# In short: as §1
# [10] = molecular target: Neu5Ac(a2-3)Gal(b1-3)GalNAc(b1-4)Gal(b1-4)Glc
# In short: as §1
# [11] = molecular target: Neu5Ac(a2-3)Gal(b1-3)GalNAc(b1-4)[Neu5Ac(a2-3)]Gal(b1-4)Glc
# In short: as §1
# [12] = molecular target: Neu5Ac(a2-3)Gal(b1-3)GalNAc(b1-4)[Neu5Ac(a2-8)Neu5Ac(a2-3)]Gal(b1-4)Glc
# In short: as §1
# [13] = molecular target: Neu5Ac(a2-3)Gal(b1-3)GalNAc6S
# In short: as §1
# [14] = molecular target: Neu5Ac(a2-3)Gal(b1-3)GlcNAc
# In short: as §1
# [15] = molecular target: Neu5Ac(a2-3)Gal(b1-3)GlcNAc(b1-2)Man
# In short: as §1
# [16] = molecular target: Neu5Ac(a2-3)Gal(b1-3)GlcNAc(b1-2)Man(a1-3)[GlcNAc(b1-4)][Neu5Ac(a2-3)Gal(b1-3)GlcNAc(b1-2)Man(a1-6)]Man(b1-4)GlcNAc(b1-4)GlcNAc
# In short: as §1
# [17] = molecular target: Neu5Ac(a2-3)Gal(b1-3)GlcNAc(b1-2)Man(a1-3)[Neu5Ac(a2-3)Gal(b1-3)GlcNAc(b1-2)Man(a1-6)]Man(b1-4)GlcNAc(b1-4)GlcNAc
# In short: as §1
# [18] = molecular target: Neu5Ac(a2-3)Gal(b1-3)GlcNAc(b1-2)[Neu5Ac(a2-3)Gal(b1-3)GlcNAc(b1-4)]Man(a1-6)[Neu5Ac(a2-3)Gal(b1-3)GlcNAc(b1-2)Man(a1-3)]Man(b1-4)GlcNAc(b1-4)GlcNAc
# In short: as §1
# [19] = molecular target: Neu5Ac(a2-3)Gal(b1-3)GlcNAc(b1-3)Gal(b1-3)GlcNAc
# In short: as §1
# [20] = molecular target: Neu5Ac(a2-3)Gal(b1-3)GlcNAc(b1-3)Gal(b1-4)GlcNAc
# In short: as §1
# [21] = molecular target: Neu5Ac(a2-3)Gal(b1-3)GlcNAc(b1-3)GalNAc
# In short: as §1
# [22] = molecular target: Neu5Ac(a2-3)Gal(b1-3)GlcNAc(b1-6)GalNAc
# In short: as §1
# [23] = molecular target: Neu5Ac(a2-3)Gal(b1-3)GlcNAc6S
# In short: as §1
# [24] = molecular target: Neu5Ac(a2-3)Gal(b1-3)[Fuc(a1-4)]GlcNAc
# In short: as §1
# [25] = molecular target: Neu5Ac(a2-3)Gal(b1-3)[Fuc(a1-4)]GlcNAc(b1-3)Gal(b1-3)[Fuc(a1-4)]GlcNAc
# In short: as §1
# [26] = molecular target: Neu5Ac(a2-3)Gal(b1-3)[Fuc(a1-4)]GlcNAc(b1-3)Gal(b1-4)[Fuc(a1-3)]GlcNAc
# In short: as §1
# [27] = molecular target: Neu5Ac(a2-3)Gal(b1-3)[GlcNAc(b1-6)]GalNAc
# In short: as §1
# [28] = molecular target: Neu5Ac(a2-3)Gal(b1-3)[Neu5Ac(a2-3)Gal(b1-4)]GlcNAc
# In short: as §1
# [29] = molecular target: Neu5Ac(a2-3)Gal(b1-3)[Neu5Ac(a2-6)]GalNAc
# In short: as §1
# [30] = molecular target: Neu5Ac(a2-3)Gal(b1-3)[Neu5Ac(a2-6)]GlcNAc(b1-3)[Fuc(a1-3)[Gal(b1-4)]GlcNAc(b1-6)]Gal(b1-4)Glc
# In short: as §1
# [31] = molecular target: Neu5Ac(a2-3)Gal(b1-3)]Neu5Ac(a2-3)Gal(b1-4)]GlcNAc
# In short: as §1
# Neu5Ac(a2-3)Gal(b1-4)Glc = molecular target: Neu5Ac(a2-3)Gal(b1-4)Glc
# In short: as §1
# [32] = molecular target: Neu5Ac(a2-3)Gal(b1-4)GlcNAc
# In short: as §1
binder,measurement,setting,value
B1,glycan array binding signal (z-score),[1],-0.64
same,glycan array binding signal (z-score),[2],-0.244
same,glycan array binding signal (z-score),Man(a1-3)[Man(a1-6)]Man,-0.011
same,glycan array binding signal (z-score),[3],-0.088
same,glycan array binding signal (z-score),[4],-0.375
same,glycan array binding signal (z-score),[5],-0.41
same,glycan array binding signal (z-score),[6],-0.141
same,glycan array binding signal (z-score),[7],-0.452
same,glycan array binding signal (z-score),Man(a1-6)Man,-0.72
same,glycan array binding signal (z-score),Man(b1-4)GlcNAc,-0.591
same,glycan array binding signal (z-score),MurNAc(b1-4)GlcNAc,-0.693
same,glycan array binding signal (z-score),Neu5Ac(a2-3)Gal,-0.552
same,glycan array binding signal (z-score),[8],0.287
same,glycan array binding signal (z-score),[9],0.531
same,glycan array binding signal (z-score),[10],-0.256
same,glycan array binding signal (z-score),[11],0.863
same,glycan array binding signal (z-score),[12],-0.644
same,glycan array binding signal (z-score),[13],-0.149
same,glycan array binding signal (z-score),[14],0.101
same,glycan array binding signal (z-score),[15],-0.267
same,glycan array binding signal (z-score),[16],0.132
same,glycan array binding signal (z-score),[17],-0.096
same,glycan array binding signal (z-score),[18],0.988
same,glycan array binding signal (z-score),[19],-1.04
same,glycan array binding signal (z-score),[20],-0.63
same,glycan array binding signal (z-score),[21],0.592
same,glycan array binding signal (z-score),[22],0.107
same,glycan array binding signal (z-score),[23],-0.219
same,glycan array binding signal (z-score),[24],-0.423
same,glycan array binding signal (z-score),[25],-0.448
same,glycan array binding signal (z-score),[26],-0.065
same,glycan array binding signal (z-score),[27],-0.312
same,glycan array binding signal (z-score),[28],-0.143
same,glycan array binding signal (z-score),[29],0.065
same,glycan array binding signal (z-score),[30],1.34
same,glycan array binding signal (z-score),[31],-0.045
same,glycan array binding signal (z-score),Neu5Ac(a2-3)Gal(b1-4)Glc,-0.419
same,glycan array binding signal (z-score),[32],-0.765

# Not a retest: entries from further up.
binder,measurement,setting,value
B1,glycan array binding signal (z-score),[17],-0.096
same,glycan array binding signal (z-score),[18],0.988
